For the assay, the target named is T1, LIN28A (mouse (endogenous in ES cells)) (UniProt Q8K3Y3).
T1 sequence: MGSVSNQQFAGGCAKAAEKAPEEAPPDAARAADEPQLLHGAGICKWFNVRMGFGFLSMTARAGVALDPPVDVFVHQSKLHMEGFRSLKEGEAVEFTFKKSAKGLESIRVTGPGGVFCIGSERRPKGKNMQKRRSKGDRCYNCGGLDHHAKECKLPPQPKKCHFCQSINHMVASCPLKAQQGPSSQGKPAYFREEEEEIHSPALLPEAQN
In words: affinity purification with mass spectrometry; LIN28A immunoprecipitation followed by mass spectrometry with cytosolic and nuclear fractions of wild-type ES cells.

Sequences of proteins named here, by UniProt entry; tags and fusion partners are left off.
UniProt Q61937: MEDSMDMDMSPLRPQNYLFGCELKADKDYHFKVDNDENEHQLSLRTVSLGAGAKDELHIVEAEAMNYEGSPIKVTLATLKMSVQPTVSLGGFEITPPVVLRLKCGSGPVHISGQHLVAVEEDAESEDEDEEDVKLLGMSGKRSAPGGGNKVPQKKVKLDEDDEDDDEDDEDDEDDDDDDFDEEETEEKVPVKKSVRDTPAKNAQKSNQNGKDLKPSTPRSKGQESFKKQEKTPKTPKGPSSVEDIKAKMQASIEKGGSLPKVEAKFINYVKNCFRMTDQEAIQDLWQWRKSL

Results are given in words; binding and its absence hold for the method and conditions named. In cells and extracts the contact can be indirect. These calls come from enrichment with a bait or labelling near it, and not all partners need be listed.

Regarding “Nucleophosmin (NPM1) (from UniProt Q61937 1-292)”, the binding entry is on record as “binds”.

B1: Fibrillarin (FBL) (protein, UniProt P35550 1-327)
chain: MKPGFSPRGGGFGGRGGFGDRGGRGGGRGGRGGFGGGRGGFGGGGRGRGGGGGGFRGRGGGGGRGGGFQSGGNRGRGGGRGGKRGNQSGKNVMVEPHRHEGVFICRGKEDALVTKNLVPGESVYGEKRVSISEGDDKIEYRAWNPFRSKLAAAILGGVDQIHIKPGAKVLYLGAASGTTVSHVSDIVGPDGLVYAVEFSHRSGRDLINLAKKRTNIIPVIEDARHPHKYRMLIAMVDVIFADVAQPDQTRIVALNAHTFLRNGGHFVISIKANCIDSTASAEAVFASEVKKMQQENMKPQEQLTLEPYERDHAVVVGVYRPPPKVKN
As for B1, the binding entry is listed as “binds”.

For the origin of these results see PMC9226220.
